No constants are given. Whether binding was seen depends on the method and setting. Some results given as binding are weak or reduced against the parent protein; the word gives no strength.
Tests used:
[1] = biological target: T1, human twisted gastrulation (Tsg), native (glycosylated) (human) (UniProt Q9GZX9); assay: SPR; ProteOn XPR36, GLC chip; Tsg immobilised by amine coupling (300 RU for ΔN-chordin and vWC2–3, 800 RU for vWC1-4CHRD and vWC1); chordin constructs injected at increasing concentrations; 25 °C, 10 mM HEPES, 150 mM NaCl, 3 mM EDTA, 0.05% Tween-20, pH 7.4, 50 μl/min; ΔN-chordin fitted to a 1:1 Langmuir model, vWC2–3 by equilibrium analysis; triplicate; both purified
T1 sequence (chain, N-linked glycans (three predicted N-linked glycosylation sites)): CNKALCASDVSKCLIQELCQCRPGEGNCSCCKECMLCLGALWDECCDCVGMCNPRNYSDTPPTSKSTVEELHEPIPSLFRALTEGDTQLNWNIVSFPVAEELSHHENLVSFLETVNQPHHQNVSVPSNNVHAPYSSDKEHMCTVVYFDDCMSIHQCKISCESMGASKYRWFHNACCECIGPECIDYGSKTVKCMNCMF

[2] = biological target: T2, natively deglycosylated human twisted gastrulation (Tsg) (human) (UniProt Q9GZX9); assay: SPR; Supplementary Fig. 1; by the methods all interactions other than those of Fig. 4 were run on a Biacore T200, 25 °C, 10 mM Hepes, 150 mM NaCl, 3 mM EDTA, 0.005% Tween-20, pH 7.4, 30 μl/min; who was immobilised was not shown; both purified
T2 sequence (chain, N-linked glycans removed with PNGase-F under non-denaturing conditions): T1 sequence (chain, N-linked glycans (three predicted N-linked glycosylation sites))

[3] = biological target: T1, human twisted gastrulation (Tsg), native (glycosylated) (human); assay: AUC; velocity sedimentation, Tsg ~0.2 mg/ml, 25,000 rpm, 20 °C, monitored at 230 nm; both purified
[4] = biological target: T1, human twisted gastrulation (Tsg), native (glycosylated) (human); assay: SAXS; 1–6 mg/ml Tsg, 10 °C; radius of gyration compared with the hydrodynamic radius; both purified
[5] = biological target: T1, human twisted gastrulation (Tsg), native (glycosylated) (human); assay: SEC-MALS; 0.5 ml at approximately 0.5 mg/ml on Superdex 200 10/300GL, 0.5 ml/min; 10 mM Tris–HCl, 150 mM NaCl, pH 7.4; native and deglycosylated Tsg; both purified
[6] = biological target: T2, natively deglycosylated human twisted gastrulation (Tsg) (human); assay: as above

B1: chordin vWC1 (residues 50–128) (domain or fragment, UniProt Q9H2X0 50-128)
chain: GCTFGGKVYALDETWHPDLGEPFGVMRCVLCACEAPQWGRRTRGPGRVSCKNIKPECPTPACGQPRQLPGHCCQTCPQE
- binding [1]: binds weakly

B2: full-length human chordin (protein, UniProt Q9H2X0 27-955)
chain: AGPEPPVLPIRSEKEPLPVRGAAGCTFGGKVYALDETWHPDLGEPFGVMRCVLCACEAPQWGRRTRGPGRVSCKNIKPECPTPACGQPRQLPGHCCQTCPQERSSSERQPSGLSFEYPRDPEHRSYSDRGEPGAEERARGDGHTDFVALLTGPRSQAVARARVSLLRSSLRFSISYRRLDRPTRIRFSDSNGSVLFEHPAAPTQDGLVCGVWRAVPRLSLRLLRAEQLHVALVTLTHPSGEVWGPLIRHRALAAETFSAILTLEGPPQQGVGGITLLTLSDTEDSLHFLLLFRGLLEPRSGGLTQVPLRLQILHQGQLLRELQANVSAQEPGFAEVLPNLTVQEMDWLVLGELQMALEWAGRPGLRISGHIAARKSCDVLQSVLCGADALIPVQTGAAGSASLTLLGNGSLIYQVQVVGTSSEVVAMTLETKPQRRDQRTVLCHMAGLQPGGHTAVGICPGLGARGAHMLLQNELFLNVGTKDFPDGELRGHVAALPYCGHSARHDTLPVPLAGALVLPPVKSQAAGHAWLSLDTHCHLHYEVLLAGLGGSEQGTVTAHLLGPPGTPGPRRLLKGFYGSEAQGVVKDLEPELLRHLAKGMASLMITTKGSPRGELRGQVHIANQCEVGGLRLEAAGAEGVRALGAPDTASAAPPVVPGLPALAPAKPGGPGRPRDPNTCFFEGQQRPHGARWAPNYDPLCSLCTCQRRTVICDPVVCPPPSCPHPVQAPDQCCPVCPEKQDVRDLPGLPRSRDPGEGCYFDGDRSWRAAGTRWHPVVPPFGLIKCAVCTCKGGTGEVHCEKVQCPRLACAQPVRVNPTDCCKQCPVGSGAHPQLGDPMQADGPRGCRFAGQWFPESQSWHPSVPPFGEMSCITCRCGAGVPHCERDDCSLPLSCGSGKESRCCSRCTAHRRPAPETRTDPELEKEAEGS
- binding [2]: binds

B3: chordin vWC1-4CHRD (residues 27–650) (domain or fragment, UniProt Q9H2X0 27-650)
chain: AGPEPPVLPIRSEKEPLPVRGAAGCTFGGKVYALDETWHPDLGEPFGVMRCVLCACEAPQWGRRTRGPGRVSCKNIKPECPTPACGQPRQLPGHCCQTCPQERSSSERQPSGLSFEYPRDPEHRSYSDRGEPGAEERARGDGHTDFVALLTGPRSQAVARARVSLLRSSLRFSISYRRLDRPTRIRFSDSNGSVLFEHPAAPTQDGLVCGVWRAVPRLSLRLLRAEQLHVALVTLTHPSGEVWGPLIRHRALAAETFSAILTLEGPPQQGVGGITLLTLSDTEDSLHFLLLFRGLLEPRSGGLTQVPLRLQILHQGQLLRELQANVSAQEPGFAEVLPNLTVQEMDWLVLGELQMALEWAGRPGLRISGHIAARKSCDVLQSVLCGADALIPVQTGAAGSASLTLLGNGSLIYQVQVVGTSSEVVAMTLETKPQRRDQRTVLCHMAGLQPGGHTAVGICPGLGARGAHMLLQNELFLNVGTKDFPDGELRGHVAALPYCGHSARHDTLPVPLAGALVLPPVKSQAAGHAWLSLDTHCHLHYEVLLAGLGGSEQGTVTAHLLGPPGTPGPRRLLKGFYGSEAQGVVKDLEPELLRHLAKGMASLMITTKGSPRGELRGQVHIANQ
- binding [1]: no binding

B4: human twisted gastrulation (Tsg), native (glycosylated) (protein, UniProt Q9GZX9 26-223)
chain: T1 sequence (chain, N-linked glycans (three predicted N-linked glycosylation sites))
modifications: N-linked glycans (three predicted N-linked glycosylation sites)
- binding [3]: no binding (tested: ~0.2 mg/ml)
- binding [4]: no binding (tested: 6 mg/ml)
- binding [5]: no binding (tested: approximately 0.5 mg/ml loaded)

B5: natively deglycosylated human twisted gastrulation (Tsg) (protein, UniProt Q9GZX9 26-223)
chain: T1 sequence (chain, N-linked glycans (three predicted N-linked glycosylation sites))
modifications: N-linked glycans removed with PNGase-F under non-denaturing conditions
- binding [6]: no binding (tested: approximately 0.5 mg/ml loaded)

Reference: PMC5080453
